Results are given in words; binding and its absence hold for the method and conditions named. Binding seen in cells or lysates may run through a third protein. These calls come from enrichment with a bait or labelling near it, and not all partners need be listed. No binding means not detected with the bait. Sequences can lack the tags named with a protein.
Biological target: T1, biotagged Csde1 (cold shock domain protein e1) (UniProt Q91W50)
T1 sequence (chain, biotin on the biotag (biotin ligase BirA coexpressed)): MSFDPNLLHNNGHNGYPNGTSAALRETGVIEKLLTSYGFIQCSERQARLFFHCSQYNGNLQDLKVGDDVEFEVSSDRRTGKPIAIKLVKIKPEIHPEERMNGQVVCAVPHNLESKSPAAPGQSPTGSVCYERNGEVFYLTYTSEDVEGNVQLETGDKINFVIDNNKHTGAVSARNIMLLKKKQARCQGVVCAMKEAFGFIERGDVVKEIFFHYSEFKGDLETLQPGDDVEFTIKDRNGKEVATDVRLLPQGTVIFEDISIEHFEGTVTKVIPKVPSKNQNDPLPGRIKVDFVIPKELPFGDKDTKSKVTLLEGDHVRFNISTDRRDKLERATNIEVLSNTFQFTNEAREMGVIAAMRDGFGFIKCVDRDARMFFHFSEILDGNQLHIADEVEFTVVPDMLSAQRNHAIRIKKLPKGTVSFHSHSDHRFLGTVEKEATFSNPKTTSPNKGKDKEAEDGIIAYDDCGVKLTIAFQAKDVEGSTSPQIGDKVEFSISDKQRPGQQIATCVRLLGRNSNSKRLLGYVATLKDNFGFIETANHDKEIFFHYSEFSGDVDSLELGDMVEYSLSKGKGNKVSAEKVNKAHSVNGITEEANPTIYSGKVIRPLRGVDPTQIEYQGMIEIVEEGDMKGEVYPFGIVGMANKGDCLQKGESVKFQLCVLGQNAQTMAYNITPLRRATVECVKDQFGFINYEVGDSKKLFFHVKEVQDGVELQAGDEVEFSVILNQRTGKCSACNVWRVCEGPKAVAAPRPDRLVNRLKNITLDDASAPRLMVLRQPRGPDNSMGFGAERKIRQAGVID
Assay: affinity purification with mass spectrometry

B1: Strap (serine-threonine receptor associated-protein) (protein, UniProt Q9Z1Z2 1-350)
chain: MAMRQTPLTCSGHTRPVVDLAFSGITPYGYFLISACKDGKPMLRQGDTGDWIGTFLGHKGAVWGATLNKDATKAATAAADFTAKVWDAVSGDELMTLAHKHIVKTVDFTQDSNYLLTGGQDKLLRIYDLNKPEAEPKEISGHTSGIKKALWCSDDKQILSADDKTVRLWDHATMTEVKSLNFNMSVSSMEYIPEGEILVITYGRSIAFHSAVSLEPIKSFEAPATINSASLHPEKEFLVAGGEDFKLYKYDYNSGEELESYKGHFGPIHCVRFSPDGELYASGSEDGTLRLWQTVVGKTYGLWKCVLPEEDSGELAKPKIGFPETAEEELEEIASENSDSIYSSTPEVKA
- binding: binds

B2: 4E-T (eIF4E Transporter) (protein, UniProt Q9EST3 1-983)
chain: MEKSVAETENGDAFLELKKLPTSKSPHRYTKEELLDIKERPYSKQRPSCLSEKYDSDGVWDPEKWHASLYPASGRSSPVESLKKESESDRPSLVRRIADPRERVKEDDLDVVLSPQRRSFGGGCHVTAAVSSRRSGSPLEKDSDGLRLLGGRRIGSGRIISARAFEKDHRLSDKDLRDLRDRDRERDYKDKRFRREFGDSKRVFGERRRNDSYTEEEPEWFSAGPTSQSETIELTGFDDKILEEDHKGRKRTRRRTASVKEGIVECNGGVAEEDEVEVILAQEPSADQEVPRDVILPEQSPGEFDFNEFFNLDKVPCLASMIEDVLGEGSVSASRFSRWFSNPSRSGSRSSSLGSTPHEELERLAGLEQAVLSPGQNSGNYFAPIPSEDHAENKVDILEMLQKAKVDLKPLLSSLSANKEKLKESSHSGVVLSVEEVEAGLKGLKVDQQMKNSTPFMAEHLEETLSAASSNRQLKKDGDMTAFNKLVNTMKASGTLPTQPKVSRNVESHLLAPAEIPGQPVSKNILQELLGQPVQRPASSNLLSGLMGSLEATASLLSQRAPSPPMSQVFRTQAASADYLHPRIPSPIGFPSGPQQLLGDPFQGMRKPMSPVSAQMSQLELQQAALEGLALPHDLAVQTAPFYQPGFSKPQVDRTRDGLRNRQQRMSKSPAPMHGGNSSSPAPAASITSMLSPSFTPTSVIRKMYESREKTKEEMAPGMVVPGDGKEDTQKTSEENLLSSNPIPNTDQDSSTTNPKLSTLQRSSCSTPLSQTSRYTKEQDYRPKTAGRKTPTLASPVPGTPFLRPTHQVPLVPHVPIVRPAHQLHPGLVQRLIAQGVHPQHLPSLLQAGVLPPGIDMAPLQGLSGPLLGQPLYPLVSAASHPLLNPRPGTPLHLAVMQQQLQRSVLHPPGSSSQAAAISVQTPQNVPSRSGMPHMHSQLEHRTSQRSSSPVGLAKWFGSDVLQQPLPSMPTKVISVDELEYRQ
- binding: no binding

Source: publication doi:10.1101/203539
